According to publication PMC7281150, “Inspired by Sea Urchins: Warburg Effect Mediated Selectivity of Novel Synthetic Non-Glycoside 1,4-Naphthoquinone-6S-Glucose Conjugates in Prostate Cancer” (Marine Drugs, 2020):

Tested on: 22Rv1 cells
Test: Proteomics (LC-MS/MS, DIA) of treated cells
Format: cell-based, human
Settings: 22Rv1, 2 µM, 48 h

“6-(1,2,3,4-Tetra-O-acetyl-6-deoxy-β-D-glucopyranos-6-ylthio)-5,8-dihydroxy-7-methyl-2,3-dimethoxy-1,4-naphthoquinone [SAB-13]” was tested. Which “number of downregulated proteins” value did it give?
The value was 149 proteins.

And the “number of upregulated proteins” value?
Its value is 104 proteins.

And the “number of significantly regulated proteins (1.5 ≤ fold change ≤ 1/1.5, p ≤ 0.05)” value (2163 proteins quantified)?
The value was 253 proteins.
